{
  "source": "patent US20230407098A1",
  "about": "“METHOD FOR EVALUATING CYSTINE UPTAKE ABILITY OF CELL, KIT FOR EVALUATING CYSTINE UPTAKE ABILITY OF CELL, METHOD FOR DETERMINING SELENOCYSTEINE, AND KIT FOR DETERMINING SELENOCYSTEINE” (DOJINDO LABORATORIES, priority 2021, published 2023)",
  "experiment": "Reactivity of FOdA with selenocystine, cystine and glutathione in the presence of TCEP (fluorescence)",
  "settings": "buffers at pH 6 and 6.5, FOdA 10 μM, TCEP 200 μM, 37° C. 30 minutes, FIG. 1",
  "data": [
    {"compound": "C=CC(=O)Oc1ccc2c(c1)Oc1cc(OC(=O)C=C)ccc1C21OC(=O)c2ccccc21", "note": "[FOdA, Fluorescein O,O′-diacrylate]", "values": [
      {"measurement": "reaction with cystine or glutathione", "setting": "10 μM cystine or 20 μM glutathione", "value": "hardly reacted"},
      {"measurement": "reaction with selenocystine to emit fluorescence", "setting": "10 μM selenocystine", "value": "selectively reacted with selenocystine to emit fluorescence"}
    ]}
  ]
}
